# Source: PMC11347561
# Amino acid sequences for entries named in this document (tags omitted).
# UniProt Q96MN2: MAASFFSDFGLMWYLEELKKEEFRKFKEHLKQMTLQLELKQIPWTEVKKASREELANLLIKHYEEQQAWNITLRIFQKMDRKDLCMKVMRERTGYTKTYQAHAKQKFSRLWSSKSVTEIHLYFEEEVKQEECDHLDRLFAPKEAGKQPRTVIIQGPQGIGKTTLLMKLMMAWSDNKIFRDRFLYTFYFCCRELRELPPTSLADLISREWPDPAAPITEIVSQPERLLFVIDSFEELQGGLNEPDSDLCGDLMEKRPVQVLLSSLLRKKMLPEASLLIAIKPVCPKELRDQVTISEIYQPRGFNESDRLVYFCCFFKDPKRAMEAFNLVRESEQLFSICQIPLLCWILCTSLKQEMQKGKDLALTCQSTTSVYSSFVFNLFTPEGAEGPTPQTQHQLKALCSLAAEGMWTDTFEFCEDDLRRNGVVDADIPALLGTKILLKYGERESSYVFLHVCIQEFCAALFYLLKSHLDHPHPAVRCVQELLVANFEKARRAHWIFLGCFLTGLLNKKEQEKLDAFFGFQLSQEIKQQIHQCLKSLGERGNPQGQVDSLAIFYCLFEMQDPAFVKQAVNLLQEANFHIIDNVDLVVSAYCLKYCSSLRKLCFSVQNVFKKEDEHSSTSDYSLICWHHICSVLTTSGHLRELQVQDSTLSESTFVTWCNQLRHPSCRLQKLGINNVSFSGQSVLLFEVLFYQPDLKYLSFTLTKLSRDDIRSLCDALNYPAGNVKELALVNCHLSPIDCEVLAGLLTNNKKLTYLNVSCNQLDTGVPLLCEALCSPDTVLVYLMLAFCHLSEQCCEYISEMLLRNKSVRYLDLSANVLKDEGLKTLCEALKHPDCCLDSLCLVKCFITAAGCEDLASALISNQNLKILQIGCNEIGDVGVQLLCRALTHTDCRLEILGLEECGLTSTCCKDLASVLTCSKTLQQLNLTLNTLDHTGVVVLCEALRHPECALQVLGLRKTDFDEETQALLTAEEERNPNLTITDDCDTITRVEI
# UniProt Q9NRC8: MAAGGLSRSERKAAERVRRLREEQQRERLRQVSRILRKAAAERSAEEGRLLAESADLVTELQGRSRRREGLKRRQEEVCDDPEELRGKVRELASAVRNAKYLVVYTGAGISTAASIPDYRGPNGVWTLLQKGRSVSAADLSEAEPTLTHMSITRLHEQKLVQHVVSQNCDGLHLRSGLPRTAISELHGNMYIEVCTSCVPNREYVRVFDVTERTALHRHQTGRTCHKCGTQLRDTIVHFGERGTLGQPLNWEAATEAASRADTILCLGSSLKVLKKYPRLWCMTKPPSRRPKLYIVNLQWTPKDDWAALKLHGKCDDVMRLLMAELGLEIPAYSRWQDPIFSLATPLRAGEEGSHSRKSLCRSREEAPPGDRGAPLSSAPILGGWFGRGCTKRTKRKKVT
# Molecular target: Flag-NLRP4 (human) (UniProt Q96MN2)
# Assay: affinity purification with mass spectrometry; lysate with overexpressed Flag-NLRP4 incubated with Flag antibodies and protein A/G Sepharose beads overnight at 4 °C; bound proteins digested with trypsin, nano-LC-MS/MS
substance,measurement,value
Sirt7 (from UniProt Q9NRC8 1-400),binding,binds

# These are yes or no findings as the source states them, for the method shown. In cells and extracts the contact can be indirect. A yes stands for co-enrichment or nearness to the bait. Other partners may have been found.
